Test results taken from PubChem BioAssay AID540275 (National Center for Advancing Translational Sciences (NCATS), 2011).
In all, about 320,000 compounds went through this assay and about 620 (0.19%) were called active. The shares of active, inactive and inconclusive entries below differ from those in the screen. Rule as the data show it: active = activation above about 80%; inconclusive = between about 30% and that limit; inactive = weaker than that.

By UniProt entry, the sequences of proteins in these tests, tags left out.
UniProt Q8NER1, whole entry, looked up: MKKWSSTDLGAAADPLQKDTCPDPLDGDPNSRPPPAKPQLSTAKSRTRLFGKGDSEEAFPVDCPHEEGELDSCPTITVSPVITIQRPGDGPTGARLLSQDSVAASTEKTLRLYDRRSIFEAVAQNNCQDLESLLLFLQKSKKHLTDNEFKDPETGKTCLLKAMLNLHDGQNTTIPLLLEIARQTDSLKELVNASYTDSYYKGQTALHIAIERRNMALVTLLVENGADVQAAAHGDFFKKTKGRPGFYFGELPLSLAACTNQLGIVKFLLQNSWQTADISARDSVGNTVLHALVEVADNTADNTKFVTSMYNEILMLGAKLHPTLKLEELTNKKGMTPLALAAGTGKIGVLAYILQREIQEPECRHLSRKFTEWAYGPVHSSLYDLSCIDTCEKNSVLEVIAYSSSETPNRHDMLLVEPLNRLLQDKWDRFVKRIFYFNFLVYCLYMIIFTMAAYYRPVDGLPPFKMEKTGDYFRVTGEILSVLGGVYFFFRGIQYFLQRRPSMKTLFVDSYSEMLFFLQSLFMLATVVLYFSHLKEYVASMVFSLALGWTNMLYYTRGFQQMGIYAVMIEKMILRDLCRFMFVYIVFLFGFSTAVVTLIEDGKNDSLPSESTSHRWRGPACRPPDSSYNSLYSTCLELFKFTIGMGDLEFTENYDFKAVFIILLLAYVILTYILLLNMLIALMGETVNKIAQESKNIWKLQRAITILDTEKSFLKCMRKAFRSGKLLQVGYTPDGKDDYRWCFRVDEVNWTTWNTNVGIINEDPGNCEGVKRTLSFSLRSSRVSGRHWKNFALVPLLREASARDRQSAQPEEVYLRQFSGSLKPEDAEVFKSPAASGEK

target: Transient receptor potential cation channel subfamily V member 1 (Homo sapiens) (UniProt Q8NER1); assay: HTS Assay for Compounds that Act as Agonists of the Vanilloid Receptor 1; settings: TRPV1-expressing cells, Fluo-8 calcium influx, agonist mode; at 8.33 µM, active compounds read high; also: 0% is about no effect
Method in brief: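 Cells expressing TRPV1 were dye-loaded with Fluo-8 and read kinetically: 10 s baseline, 3 min after compound (agonist portion), then 2 min after EC20 capsaicin (allosteric enhancer portion). Calcium-bound dye fluorescence at 480/520 nm.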

Structure (SMILES) | activation
CC(=O)N1CCSc2ccc(S(=O)(=O)Nc3ccc(C)cc3)cc21 | inconclusive: 45.3%
O=C(COC(=O)c1cccc(S(=O)(=O)N2CCCCC2)c1)NCc1ccccc1 | inconclusive: 53%
O=C(COc1ccccc1)Nc1ccc([N+](=O)[O-])cc1 | inconclusive: 44.9%
COc1ccc(C(=O)NCCSc2ccccc2C)cc1 | inconclusive: 47.9%
COc1ccc(CN(CC(=O)NCc2ccccc2)C(=O)c2csnn2)cc1 | inconclusive: 41.7%
O=C(Nc1cccc(O)c1)c1cc(-c2ccccc2Cl)on1 | inconclusive: 66.1%
COCCN(C(=O)COC(=O)/C=C/c1ccc2ccccc2n1)c1c(N)n(Cc2ccccc2)c(=O)[nH]c1=O | inactive: 3.27%
CCc1ccc(C2CC(=O)NC(SCC(=O)OC(C)C)=C2C#N)cc1 (centres undefined) | inconclusive: 35.9%
COc1ccc(-c2ccc(=O)n(Cc3cccc(Cl)c3)n2)cc1 | inconclusive: 51.2%
O=C(Nc1ccc(Br)cc1)c1cnc[nH]1 | inconclusive: 62.9%
O=C(Nc1ccccc1F)Nc1ccccc1N1CCCCC1 | inconclusive: 32.2%
Cc1ccc(-c2nnc(C)c(N3CCOCC3)n2)cc1 | inconclusive: 50.4%
CCN1C(=O)CSC1=NC1C2CC3CC(C2)CC1C3 (centres undefined) | inconclusive: 46.4%
C[C@H](NC(=O)c1nc[nH]c1C(=O)N[C@@H](C)C(=O)OC(C)(C)C)C(=O)OC(C)(C)C | inconclusive: 47.1%
C/C(=C\C=C(C#N)C#N)c1cc(C#N)c(N)o1 | inactive: 10.5%
OC1CCN(C(=S)Nc2ccc(Nc3ccccc3)cc2)CC1 | inactive: 0.281%
CCN1/C(=C/C=C/C=C/c2sc3ccccc3[n+]2CC)Sc2ccccc21 | inactive: -3.83%
O=C(NCc1ccccc1)c1ccco1 | inactive: -1.58%
CCOc1ccc(CN(C)CC(=O)NCc2ccccc2Cl)cc1 | inconclusive: 31.1%
Cc1ccc(CN2CCCCC2C(=O)Nc2ccc(Oc3cccnc3)cc2)o1 (centres undefined) | inconclusive: 61.6%

Structure (SMILES) | activation
O=C(Cn1cc(C(F)(F)F)ccc1=O)N1CCN(S(=O)(=O)c2ccccc2)CC1 | inactive: 0.179%
N/C(Cc1ccc(Cl)cc1)=N\OC(=O)C1CCCCC1 | inconclusive: 37%
CCc1nc2ccccc2n1Cc1ccc(OC)c(OC)c1 | inactive: 18.7%
O=C(CN1CCN(S(=O)(=O)c2ccc(Cl)c(Cl)c2)CC1)N1CCCCC1 | inconclusive: 50.7%
CC1CCN(S(=O)(=O)c2ccc3c(c2)oc(=O)n3CC(=O)NCc2ccc3c(c2)OCO3)CC1 | inconclusive: 43.6%
CCN1CCSc2ccc(C(=O)NCc3ccccc3F)cc21 | inconclusive: 33.4%
CCCCCCCNC(=O)C1(CC2CC(c3ccc(Cl)cc3)=NO2)CCN(C(=O)CCCCCBr)CC1 (centres undefined) | inactive: 0.538%
COc1cc(/C=C2\Oc3cc(O)ccc3C2=O)ccc1O | inactive: 17%
C(=N\Nc1nc(N2CCCCCC2)nc(N2CCCCCC2)n1)/c1ccccc1 | inconclusive: 68.2%
Cc1ccccc1CSCCNC(=O)c1ccccc1 | inconclusive: 51.9%
COc1ccc(OCCCC(=O)Nc2ncn[nH]2)cc1 | inactive: 1%
Cc1ccccc1NC(=O)CN1CCOCC1 | inactive: -0.457%
Cc1cc(N2CC(C(=O)NCc3cccs3)CC2=O)ccc1C(C)C (centres undefined) | inconclusive: 43.2%
COc1ccc(C(=O)NC(=S)Nc2cccc3ncccc23)cc1[N+](=O)[O-] | inactive: -0.0339%
COc1cc(-n2cnnn2)ccc1S(=O)(=O)N1CCOCC1 | inactive: 4.3%
COc1ccccc1NC(=O)C1=C(C)NC(=O)NC1c1ccc(C)cc1 (centres undefined) | inconclusive: 33.6%
COC(CN(C)C(=O)c1cn(C)c2ccc(S(=O)(=O)N(C)C3CCCCC3)cc2c1=O)OC | inactive: 1.31%
CN(CC(=O)NCc1ccccc1)Cc1ccc(Cl)cc1 | inconclusive: 42.2%
COc1ccc(NC(=O)c2cc(=O)c3ccccc3o2)cn1 | inactive: 1.11%
C=CCNC(=O)COC(=O)c1oc2ccccc2c1CSC1CCCCC1 | inconclusive: 47.5%

Quoted from the entries so far (two entries):
Structure (SMILES) | activation
O=C(Cn1cc(C(F)(F)F)ccc1=O)N1CCN(S(=O)(=O)c2ccccc2)CC1 | inactive: 0.179%
N/C(Cc1ccc(Cl)cc1)=N\OC(=O)C1CCCCC1 | inconclusive: 37%

Later entries

Structure (SMILES) | activation
CCOC(=O)c1ccc(NC(=O)Nc2ccon2)cc1 | inactive: 4.86%
CN1C2=C(C#N)C(c3ccccc3)(C(F)(F)F)NC(=O)N2c2ccccc21 (centres undefined) | inconclusive: 39.2%
Cc1cc2oc(=O)cc(CN(C)Cc3cccc(F)c3)c2cc1Cl | inconclusive: 40.1%
O=C(CSc1nc2ccccc2o1)N1N=C(c2cccs2)CC1c1ccc(F)cc1 (centres undefined) | inactive: 11.4%
Cc1ccc(NC(=O)C(c2ccccc2)c2ccccc2)nc1 | inconclusive: 50.4%
CC(=O)c1cccc(NC(=O)c2ccc3c(c2)CCCC3)c1 | active: 87%
C(/CCc1ccccc1)=N\Nc1nc2ccccc2[nH]1 | inactive: -0.187%
COc1cccc(CNC(=O)CCn2ccc3cc(S(=O)(=O)N4CCCC4)ccc32)c1 | active: 89.2%
O=C(NC(=S)NCCC1=CCCCC1)c1ccco1 | inconclusive: 48.6%
CC1=CC(C)(C)n2c(O)c(N=NC(N)=S)c3cccc1c32 | inconclusive: 37.7%
COc1ccccc1CNC(=O)COC(=O)c1ccccc1-c1ccccc1 | inconclusive: 45.9%
CCc1ccc(NC(=O)C2CCN(S(C)(=O)=O)CC2)cc1 | inconclusive: 30.7%
COc1ccc(N(Cc2cc3ccccc3[nH]c2=O)S(=O)(=O)c2ccc(OC)cc2)cc1 | inconclusive: 32.6%
Cc1ccc(S(=O)(=O)N(C)C)cc1NC(=O)C1CCN(C(=O)Nc2ccccc2)CC1 | inactive: -1.37%
Cc1ccc2oc(C(=O)N3CCC(O)(c4ccccc4)CC3)c(C)c2c1 | inconclusive: 54.7%
CCc1c(C)sc(NC(=S)NC(C)C2CCCO2)c1C(=O)OC (centres undefined) | inactive: 2.98%
Cc1ccc(-c2noc(CCC(=O)NCCCN3CCN(c4cccc(Cl)c4)CC3)n2)cc1 | inactive: -3.94%
CSc1ccccc1NC(=O)CN(C)CC(=O)Nc1ccccc1F | inactive: -0.997%
N#CC1=C(Nc2ccccc2)SC=C(c2ccc(Cl)c(Cl)c2)N=C1N1CCOCC1 | inactive: 5.93%
